Experimental data: patent US20240336587A1, “CANNABICHROMENE DERIVATIVES AND METHODS FOR MAKING AND USING THE SAME” (University of Mississippi, priority 2021, published 2024)
At least one read-out could not be matched to a standard name with certainty.

Test: Pharmacokinetic study, plasma levels by LC-MS-MS
Assay type: in vivo, mouse
Details: oral administration
Description: CBC and CBC-val-HS were dissolved in a solution of 10% ethanol/10% cremophore and 80% saline. Mice received IP injection of test compounds in a volume of 1.0 ml/kg for the abdominal writhing assay and 1.0 ml/kg, IP in the hot plate assay. For pharmacokinetic studies, drug was given in a volume of 1.0 ml/kg for tail vein and oral gavage administration. CBC-val-HS doses were calculated to be the dose equivalent of CBC.
All experimental procedures were approved by the University of Mississippi Institutional Animal Care and Use Committee (Protocol #19-009). Animal studies reported in compliance with the ARRIVE guidelines. Male wild-type C57BL/6 mice (7-10 weeks, 17-30 grams) were used for all behavioral studies and Male CD-1 (6-7 weeks, 20-25 grams) were used for all pharmacokinetic studies. Mice were purchased from Envigo, (Indianapolis, IN, USA) and acclimated for one week prior to experimentation. […]
For CBC in the plasma samples were extracted using solid phase cartridges. […] Deuterated internal standard D3-CBC was used for the quantitation of CBC and CBCVHS. The peak area corresponding to each extracted MRM was measured and correlated to a multiple point calibration curve to determine the plasma concentration of each analyte. […]

## CCCCCc1cc(OC(=O)C(NC(=O)CCC(=O)O)C(C)C)c2c(c1)OC(C)(CCC=C(C)C)C=C2 (racemic) [CBC-Val-HS, cannabichromene-valinate-hemisuccinate]
  oral bioavailability relative to CBC: approximately three
FIG. 3B
  bioavailability compared with CBC (in words): significantly greater bioavailability than CBC
